Results published in the supplement of paper PMC10849652.
Some of the results follow.

By UniProt entry, the sequences of proteins in these tests, tags left out. Where a name states a change or a piece, a line headed by the entry shows the natural chain unless it says otherwise.
UniProt Q9Y3V2: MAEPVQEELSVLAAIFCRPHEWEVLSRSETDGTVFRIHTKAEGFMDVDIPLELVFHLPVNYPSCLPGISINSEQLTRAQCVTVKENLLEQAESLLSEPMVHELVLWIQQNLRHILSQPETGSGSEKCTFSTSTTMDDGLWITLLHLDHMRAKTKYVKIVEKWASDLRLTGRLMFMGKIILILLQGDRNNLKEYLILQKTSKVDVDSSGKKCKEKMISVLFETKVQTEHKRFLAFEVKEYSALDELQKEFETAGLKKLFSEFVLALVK
UniProt Q9NQC3: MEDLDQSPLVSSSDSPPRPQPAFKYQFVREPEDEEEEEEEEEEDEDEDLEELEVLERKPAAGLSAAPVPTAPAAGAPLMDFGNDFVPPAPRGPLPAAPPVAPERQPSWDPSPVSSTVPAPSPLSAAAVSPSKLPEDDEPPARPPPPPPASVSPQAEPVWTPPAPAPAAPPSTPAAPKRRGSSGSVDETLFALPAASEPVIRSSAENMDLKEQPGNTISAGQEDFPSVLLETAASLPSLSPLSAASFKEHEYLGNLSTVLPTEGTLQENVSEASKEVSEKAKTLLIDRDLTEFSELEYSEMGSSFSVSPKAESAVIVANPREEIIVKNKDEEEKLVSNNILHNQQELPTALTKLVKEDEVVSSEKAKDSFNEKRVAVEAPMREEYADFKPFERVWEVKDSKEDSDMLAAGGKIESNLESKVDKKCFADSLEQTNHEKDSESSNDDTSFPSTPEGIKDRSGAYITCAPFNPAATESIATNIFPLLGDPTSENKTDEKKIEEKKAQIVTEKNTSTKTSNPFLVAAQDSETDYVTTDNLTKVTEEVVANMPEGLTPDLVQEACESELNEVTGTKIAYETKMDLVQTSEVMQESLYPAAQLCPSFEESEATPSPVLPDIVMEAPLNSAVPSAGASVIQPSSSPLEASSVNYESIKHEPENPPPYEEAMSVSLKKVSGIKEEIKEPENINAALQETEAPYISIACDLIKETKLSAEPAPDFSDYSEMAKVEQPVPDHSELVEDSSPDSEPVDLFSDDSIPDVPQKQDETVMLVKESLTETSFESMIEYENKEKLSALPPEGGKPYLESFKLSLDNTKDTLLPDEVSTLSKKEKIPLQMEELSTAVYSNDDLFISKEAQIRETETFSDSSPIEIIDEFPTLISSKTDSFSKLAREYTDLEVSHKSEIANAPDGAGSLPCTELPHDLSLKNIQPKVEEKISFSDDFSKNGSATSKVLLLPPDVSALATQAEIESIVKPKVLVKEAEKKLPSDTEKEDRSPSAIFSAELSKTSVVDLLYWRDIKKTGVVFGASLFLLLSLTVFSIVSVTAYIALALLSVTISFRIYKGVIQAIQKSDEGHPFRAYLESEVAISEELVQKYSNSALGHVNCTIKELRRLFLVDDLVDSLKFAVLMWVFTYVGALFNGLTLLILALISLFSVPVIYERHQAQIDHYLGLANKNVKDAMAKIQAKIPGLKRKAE
UniProt Q96C34: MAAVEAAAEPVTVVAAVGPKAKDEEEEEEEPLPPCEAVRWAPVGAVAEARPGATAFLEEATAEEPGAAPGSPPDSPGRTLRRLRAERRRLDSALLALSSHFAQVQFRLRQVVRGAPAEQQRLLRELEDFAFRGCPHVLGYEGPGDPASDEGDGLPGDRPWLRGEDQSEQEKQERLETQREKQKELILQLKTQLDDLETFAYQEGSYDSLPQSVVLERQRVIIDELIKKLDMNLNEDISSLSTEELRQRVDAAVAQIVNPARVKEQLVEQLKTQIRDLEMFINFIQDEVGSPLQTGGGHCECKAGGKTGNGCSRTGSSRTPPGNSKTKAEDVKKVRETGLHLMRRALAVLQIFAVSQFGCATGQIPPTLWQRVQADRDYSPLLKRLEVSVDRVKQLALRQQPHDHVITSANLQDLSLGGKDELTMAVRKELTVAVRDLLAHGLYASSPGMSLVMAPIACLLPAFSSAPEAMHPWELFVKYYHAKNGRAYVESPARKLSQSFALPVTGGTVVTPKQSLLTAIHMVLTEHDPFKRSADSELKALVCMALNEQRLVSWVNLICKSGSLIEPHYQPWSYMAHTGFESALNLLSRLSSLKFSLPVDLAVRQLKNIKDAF
UniProt Q7L099: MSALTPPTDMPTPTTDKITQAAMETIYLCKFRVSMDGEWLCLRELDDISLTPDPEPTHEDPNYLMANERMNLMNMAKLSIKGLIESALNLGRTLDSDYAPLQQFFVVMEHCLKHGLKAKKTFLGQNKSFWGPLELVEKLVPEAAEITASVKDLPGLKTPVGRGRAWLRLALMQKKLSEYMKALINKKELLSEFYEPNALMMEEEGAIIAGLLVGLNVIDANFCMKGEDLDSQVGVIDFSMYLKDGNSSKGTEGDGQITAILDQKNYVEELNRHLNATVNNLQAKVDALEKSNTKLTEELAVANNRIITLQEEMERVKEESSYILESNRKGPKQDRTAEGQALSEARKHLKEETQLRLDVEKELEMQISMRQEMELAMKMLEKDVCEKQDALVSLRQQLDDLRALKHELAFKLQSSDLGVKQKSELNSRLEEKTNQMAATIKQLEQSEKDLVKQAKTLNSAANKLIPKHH
UniProt Q96CM3: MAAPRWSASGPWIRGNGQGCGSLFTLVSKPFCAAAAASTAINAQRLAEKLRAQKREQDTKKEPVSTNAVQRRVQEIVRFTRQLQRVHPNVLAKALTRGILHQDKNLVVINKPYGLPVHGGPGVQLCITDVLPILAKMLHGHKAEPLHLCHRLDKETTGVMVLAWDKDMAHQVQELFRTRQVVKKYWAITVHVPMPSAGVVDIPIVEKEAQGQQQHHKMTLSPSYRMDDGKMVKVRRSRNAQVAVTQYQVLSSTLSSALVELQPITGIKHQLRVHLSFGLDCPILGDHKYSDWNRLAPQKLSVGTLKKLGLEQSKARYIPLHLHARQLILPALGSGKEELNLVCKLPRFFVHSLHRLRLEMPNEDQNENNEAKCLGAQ
UniProt Q9BZR6: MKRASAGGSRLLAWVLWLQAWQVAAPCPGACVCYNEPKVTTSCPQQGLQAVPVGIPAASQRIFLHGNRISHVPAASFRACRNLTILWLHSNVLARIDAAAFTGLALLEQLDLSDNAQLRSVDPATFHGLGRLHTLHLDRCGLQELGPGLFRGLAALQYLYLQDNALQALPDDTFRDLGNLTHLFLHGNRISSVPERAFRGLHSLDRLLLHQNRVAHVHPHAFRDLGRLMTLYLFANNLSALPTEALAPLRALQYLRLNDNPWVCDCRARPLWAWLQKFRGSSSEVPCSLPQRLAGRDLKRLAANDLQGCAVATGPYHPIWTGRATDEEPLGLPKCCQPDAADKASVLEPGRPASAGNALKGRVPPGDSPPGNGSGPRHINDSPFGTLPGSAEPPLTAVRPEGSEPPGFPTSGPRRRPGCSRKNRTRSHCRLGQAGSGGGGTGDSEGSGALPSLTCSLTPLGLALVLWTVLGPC
UniProt Q9UBS0: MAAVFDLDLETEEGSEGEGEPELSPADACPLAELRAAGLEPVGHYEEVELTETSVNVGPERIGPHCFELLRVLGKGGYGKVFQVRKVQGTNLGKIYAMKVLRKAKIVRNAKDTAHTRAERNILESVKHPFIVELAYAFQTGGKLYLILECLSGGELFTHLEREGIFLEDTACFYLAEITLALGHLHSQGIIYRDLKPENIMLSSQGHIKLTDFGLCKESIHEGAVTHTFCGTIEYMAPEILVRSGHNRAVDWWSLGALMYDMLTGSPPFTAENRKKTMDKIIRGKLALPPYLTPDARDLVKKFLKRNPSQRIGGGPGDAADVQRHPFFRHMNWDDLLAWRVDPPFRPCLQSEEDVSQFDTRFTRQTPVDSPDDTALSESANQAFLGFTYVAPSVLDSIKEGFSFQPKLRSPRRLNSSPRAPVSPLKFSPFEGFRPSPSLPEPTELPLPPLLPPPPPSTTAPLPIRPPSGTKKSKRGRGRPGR
UniProt P28702: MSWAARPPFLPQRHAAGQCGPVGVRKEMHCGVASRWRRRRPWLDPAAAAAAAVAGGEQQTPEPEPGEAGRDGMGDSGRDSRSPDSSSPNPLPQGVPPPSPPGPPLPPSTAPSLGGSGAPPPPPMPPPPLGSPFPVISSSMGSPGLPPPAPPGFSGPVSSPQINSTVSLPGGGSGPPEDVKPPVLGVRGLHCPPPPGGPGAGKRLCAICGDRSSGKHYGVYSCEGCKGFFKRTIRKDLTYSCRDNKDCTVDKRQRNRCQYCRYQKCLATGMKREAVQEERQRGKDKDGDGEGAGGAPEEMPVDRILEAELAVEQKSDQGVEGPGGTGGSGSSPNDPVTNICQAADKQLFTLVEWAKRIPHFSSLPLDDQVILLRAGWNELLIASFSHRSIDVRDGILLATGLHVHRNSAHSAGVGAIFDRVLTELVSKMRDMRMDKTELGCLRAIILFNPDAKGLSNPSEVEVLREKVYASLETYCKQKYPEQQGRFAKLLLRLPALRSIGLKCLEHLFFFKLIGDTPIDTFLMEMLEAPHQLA
UniProt Q9NYV6: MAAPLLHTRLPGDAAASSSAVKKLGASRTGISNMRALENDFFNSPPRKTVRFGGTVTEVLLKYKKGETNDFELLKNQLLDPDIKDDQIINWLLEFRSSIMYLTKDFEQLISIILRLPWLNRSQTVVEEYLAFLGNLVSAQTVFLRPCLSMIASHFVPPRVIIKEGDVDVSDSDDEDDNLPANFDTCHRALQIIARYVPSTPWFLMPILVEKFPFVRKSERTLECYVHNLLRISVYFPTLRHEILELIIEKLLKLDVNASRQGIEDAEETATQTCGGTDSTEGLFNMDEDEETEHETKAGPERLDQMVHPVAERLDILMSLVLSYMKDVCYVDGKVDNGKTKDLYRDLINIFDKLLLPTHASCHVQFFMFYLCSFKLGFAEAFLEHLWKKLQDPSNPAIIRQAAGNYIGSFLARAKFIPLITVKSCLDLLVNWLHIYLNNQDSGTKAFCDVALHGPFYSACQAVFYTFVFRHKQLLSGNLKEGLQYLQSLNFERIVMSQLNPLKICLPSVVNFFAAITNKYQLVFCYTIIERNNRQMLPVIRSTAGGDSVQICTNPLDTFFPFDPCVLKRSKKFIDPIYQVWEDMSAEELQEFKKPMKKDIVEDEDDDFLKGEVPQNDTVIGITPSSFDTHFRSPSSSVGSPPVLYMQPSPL
UniProt Q9UJJ7: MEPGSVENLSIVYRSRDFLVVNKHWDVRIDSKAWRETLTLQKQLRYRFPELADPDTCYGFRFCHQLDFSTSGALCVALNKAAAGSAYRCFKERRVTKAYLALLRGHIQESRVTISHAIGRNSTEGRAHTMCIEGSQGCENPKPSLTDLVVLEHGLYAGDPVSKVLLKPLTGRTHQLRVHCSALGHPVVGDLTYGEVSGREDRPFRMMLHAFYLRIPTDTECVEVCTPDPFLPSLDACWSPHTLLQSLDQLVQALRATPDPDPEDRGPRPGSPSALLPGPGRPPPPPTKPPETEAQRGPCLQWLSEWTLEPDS
UniProt Q9HCY8: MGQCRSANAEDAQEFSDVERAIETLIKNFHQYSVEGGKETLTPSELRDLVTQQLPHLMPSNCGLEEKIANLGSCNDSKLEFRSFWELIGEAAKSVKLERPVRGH
UniProt Q96EU6: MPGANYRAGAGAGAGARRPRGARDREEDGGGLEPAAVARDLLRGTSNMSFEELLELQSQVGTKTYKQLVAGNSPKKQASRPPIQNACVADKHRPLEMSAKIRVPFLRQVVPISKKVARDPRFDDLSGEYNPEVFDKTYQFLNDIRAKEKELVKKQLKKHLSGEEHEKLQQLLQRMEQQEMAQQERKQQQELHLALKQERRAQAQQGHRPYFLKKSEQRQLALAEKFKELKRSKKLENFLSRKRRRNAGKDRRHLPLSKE
UniProt P19793: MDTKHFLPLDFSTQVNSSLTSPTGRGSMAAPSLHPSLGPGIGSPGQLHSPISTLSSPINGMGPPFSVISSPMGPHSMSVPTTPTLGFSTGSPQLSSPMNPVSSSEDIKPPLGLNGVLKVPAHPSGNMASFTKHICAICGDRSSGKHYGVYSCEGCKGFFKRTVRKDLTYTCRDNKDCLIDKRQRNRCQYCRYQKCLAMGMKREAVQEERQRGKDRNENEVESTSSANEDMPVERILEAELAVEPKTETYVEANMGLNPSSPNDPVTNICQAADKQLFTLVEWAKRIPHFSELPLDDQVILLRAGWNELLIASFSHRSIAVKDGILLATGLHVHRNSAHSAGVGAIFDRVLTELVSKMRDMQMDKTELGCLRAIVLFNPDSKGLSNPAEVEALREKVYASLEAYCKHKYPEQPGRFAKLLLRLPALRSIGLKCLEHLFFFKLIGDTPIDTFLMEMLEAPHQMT
UniProt P23297: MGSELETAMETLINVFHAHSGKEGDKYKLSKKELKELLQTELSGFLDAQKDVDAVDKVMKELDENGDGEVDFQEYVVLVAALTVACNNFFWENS
UniProt Q9BY42: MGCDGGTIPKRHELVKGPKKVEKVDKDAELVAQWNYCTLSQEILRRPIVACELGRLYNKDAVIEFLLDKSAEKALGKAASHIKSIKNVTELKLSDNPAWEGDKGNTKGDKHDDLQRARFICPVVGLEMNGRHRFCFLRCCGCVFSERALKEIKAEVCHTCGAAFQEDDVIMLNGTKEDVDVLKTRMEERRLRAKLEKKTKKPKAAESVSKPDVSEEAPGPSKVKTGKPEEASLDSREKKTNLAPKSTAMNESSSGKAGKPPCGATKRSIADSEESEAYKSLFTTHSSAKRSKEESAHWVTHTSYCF

Columns and labels:
Assay in all cases: log2 fold change, soluble protein after heating vs DMSO (PISA); higher = thermal stabilisation; K562 lysate, 10 uM; active = over 0.2 and 3.5 SD of the protein, either way, in both replicates (recomputed)
[1] = compound: C1=CC=C(C=C1)C2=NC(=C(N2)C3=CC=NC=C3)C4=CC(=C(C=C4)Cl)O
Outline: (§1)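 To prepare the extract, K562 pellets were dounce-homogenised in PBS pH 7.4 with 1 mM MgCl2, giving crude material at 1 mg/mL protein. This was treated with 10 μM compound for 30 min, then heated in aliquots for 3 min over 48°C-58°C before pooling and addition of NP-40 to 0.5% at 4°C. Centrifugation at 21,000xg for 90 min left soluble protein in the supernatant, which TMTpro 16plex LC-MS/MS quantified with equalised channel sums. Results are log-two fold changes in thermal stability compared with solvent controls, from duplicates.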

IRAK-1-4 Inhibitor I = compound: C1COCCN1CCN2C3=CC=CC=C3N=C2NC(=O)C4=CC(=CC=C4)[N+](=O)[O-] [IRAK-1-4 Inhibitor I]
Outline: as §1

[2] = compound: C1CCN(C1)C(=O)NC2=CC=CC(=C2)NC3=NC=C(C(=N3)NCCC4=CN=CN4)Br
Outline: as §1

[3] = compound: C1CN(CCC1(CC2=CC=C(C=C2)Cl)N)C3=NC=NC4=C3C=CN4
Outline: as §1

erlotinib = compound: C#Cc1cccc(Nc2ncnc3cc(OCCOC)c(OCCOC)cc23)c1 [erlotinib]
Outline: as §1

[4] = compound: C1=CC(=CC=C1C2=NC3=C(N2)C=C(C=C3)C(=O)N)OC4=CC=C(C=C4)Cl
Outline: as §1

[5] = compound: C1=CC2=NC=CN=C2C=C1/C=C/3\C(=O)NC(=O)S3
Outline: as §1

[6] = compound: C/C(=N\NC(=O)C1=CC(=CC=C1)S(=O)(=O)N2CCOCC2)/C3=C(C=CC(=C3)Cl)O
Outline: as §1

[7] = compound: C1=CC2=C(C=CC(=C2)/C=C\3/C(=O)NC(=NCC4=CC=CS4)S3)N=C1
Outline: as §1

[8] = compound: C1=CC=C2C(=C1)C3=NNC4=CC=CC(=C43)C2=O
Outline: as §1

Measured: log2 fold change

RWDD3 (UniProt Q9Y3V2)
inactive: [1] -0.204 | IRAK-1-4 Inhibitor I 0.114

RTN4 isoform 3 (UniProt Q9NQC3)
inactive: [2] -0.036 | [3] 0.213

S100A7A (UniProt Q86SG5)
inactive: erlotinib 0.42 | [4] -0.26

RUNDC1 (UniProt Q96C34)
inactive: erlotinib 0.076 | [4] -0.029 | [5] -0.035 | [1] -0.023 | IRAK-1-4 Inhibitor I -0.097

S100A4 (UniProt P26447)
inactive: erlotinib 0.084 | [6] 0.818 | [4] -0.159 | [7] 0.095 | [1] -0.059 | [8] -0.014 | [2] 0.176 | [3] -0.058 | IRAK-1-4 Inhibitor I 0.038

RUFY3 isoform 2 (UniProt Q7L099)
inactive: erlotinib 0.078 | [4] 0.032 | [5] -0.022 | [1] -0.167 | IRAK-1-4 Inhibitor I -0.009

RUSC2 (UniProt Q8N2Y8)
inactive: erlotinib -0.005 | [6] -0.041 | [4] 0.056 | [7] -0.207 | [5] -0.123 | [1] 0.175 | [8] -0.024 | IRAK-1-4 Inhibitor I -0.237

RPP30 (UniProt Q5VU11)
inactive: [6] -0.362 | [7] -0.052 | [8] 0.053 | [2] 0.015 | [3] -0.185

RYBP (UniProt Q8N488)
inactive: erlotinib -0.054 | [6] -0.013 | [4] 0.059 | [7] 0.065 | [5] -0.031 | [1] -0.053 | [8] -0.011 | [2] -0.006 | [3] 0.058 | IRAK-1-4 Inhibitor I -0.023

RPUSD4 (UniProt Q96CM3)
inactive: erlotinib 0.01 | [6] 0.036 | [4] -0.022 | [7] -0.04 | [5] -0.069 | [1] 0.033 | [8] 0.018 | IRAK-1-4 Inhibitor I 0.081

S100A12 (UniProt P80511)
inactive: [6] 2.52 | [7] 0.026 | [8] -0.007

RTN4R (UniProt Q9BZR6)
inactive: erlotinib 0.123 | [4] 0.064

RTN4, A0A0U1RQR6
inactive: [1] 0.116 | IRAK-1-4 Inhibitor I 0.195

RUFY2 isoform 1 (UniProt Q8WXA3)
inactive: [6] -0.117 | [7] 0.02 | [5] 0.016 | [1] -0.099 | [8] 0 | [2] -0.01 | [3] 0.041 | IRAK-1-4 Inhibitor I 0.05

RYR1 (UniProt P21817)
inactive: erlotinib -0.077 | [4] -0.174 | [5] 0.012 | [1] -0.025 | [2] -0.029 | [3] -0.057 | IRAK-1-4 Inhibitor I -0.003

RPS3 (UniProt E9PJN9)
inactive: [6] 0.183 | [7] -0.231 | [1] 0.022 | [8] 0.032 | [2] -0.021 | [3] 0.04 | IRAK-1-4 Inhibitor I 0.022

RTL8A (UniProt Q9BWD3)
inactive: [6] -0.081 | [7] -0.021 | [8] 0.002 | [2] 0.187 | [3] -0.238

RPS19 (UniProt M0R2L9)
inactive: erlotinib -0.387 | [6] -0.23 | [4] -0.279 | [7] -0.053 | [1] 0.018 | [8] -0.148 | [2] -0.191 | [3] -0.381 | IRAK-1-4 Inhibitor I 0.102

RPS6KB2 (UniProt Q9UBS0)
inactive: erlotinib -0.015 | [4] -0.154 | [2] -0.058 | [3] -0.061

RSL24D1 (UniProt Q9UHA3)
inactive: erlotinib 0.068 | [4] 0.024 | [1] 0.064 | [2] 0.01 | [3] 0.153 | IRAK-1-4 Inhibitor I 0.049

RRP1 (UniProt P56182)
inactive: erlotinib 0.05 | [6] 0.031 | [4] -0.094 | [7] -0.042 | [5] 0.042 | [1] -0.009 | [8] 0.029 | [2] 0.021 | [3] 0.01 | IRAK-1-4 Inhibitor I -0.049

RSC1A1 (UniProt Q92681)
inactive: [5] -0.109

RPUSD3 (UniProt Q6P087)
inactive: erlotinib -0.068 | [6] -0.1 | [4] -0.084 | [7] 0.024 | [8] 0.021 | [2] -0.034 | [3] -0.105

S100A10 (UniProt P60903)
inactive: erlotinib 0.094 | [4] -0.053 | [5] 0.184 | [1] -0.254 | IRAK-1-4 Inhibitor I -0.312

S100A6 (UniProt P06703)
inactive: erlotinib 0.045 | [6] 0.346 | [4] -0.025 | [7] 0 | [1] -0.196 | [8] 0.02 | [2] 0.352 | [3] 0.151 | IRAK-1-4 Inhibitor I -0.209

RXRB isoform 3 (UniProt P28702)
inactive: erlotinib -0.025 | [6] 0.006 | [4] -0.038 | [7] -0.014 | [5] 0.051 | [8] -0.039 | [2] 0.011 | [3] -0.015

RRN3 (UniProt Q9NYV6)
inactive: [6] -0.107 | [7] -0.123 | [5] 0.346 | [1] 0.045 | [8] -0.096 | [2] -0.011 | [3] -0.041 | IRAK-1-4 Inhibitor I 0.019

RXYLT1 (UniProt Q9Y2B1)
inactive: erlotinib -0.135 | [4] 0.235 | [1] -0.2 | IRAK-1-4 Inhibitor I 0.155

RPUSD1 (UniProt Q9UJJ7)
inactive: [6] 0.099 | [7] -0.194 | [1] -0.007 | [8] -0.119 | [2] 0.206 | [3] -0.092 | IRAK-1-4 Inhibitor I 0.133

RPS7, A0A2R8Y623
inactive: erlotinib 0.249 | [6] 0.194 | [4] 0.131 | [7] -0.164 | [5] 0.399 | [8] -0.172 | [2] -0.087 | [3] 0.029

RPS19BP1 (UniProt Q86WX3)
inactive: [2] -0.159 | [3] -0.042

RPS6KA5 (UniProt O75582)
inactive: erlotinib -0.036 | [6] -0.161 | [4] 0.2 | [7] 0.014 | [1] 0.023 | [8] 0.152 | [2] -0.02 | [3] -0.11 | IRAK-1-4 Inhibitor I 0.014

RPS6KA3 (UniProt P51812)
inactive: erlotinib -0.04 | [6] -0.003 | [4] 0.182 | [5] 0.004 | [1] 0.026 | [8] 0.328 | [2] 0.082 | [3] -0.043 | IRAK-1-4 Inhibitor I -0.019

RTL8C (UniProt A6ZKI3)
inactive: erlotinib -0.052 | [6] 0.125 | [4] -0.084 | [7] 0.114 | [1] 0.07 | [8] -0.076 | [2] 0.217 | [3] 0.046 | IRAK-1-4 Inhibitor I 0.042

Three entries drawn at random from the list so far, as already listed:
RPS7, A0A2R8Y623
inactive: erlotinib 0.249 | [6] 0.194 | [4] 0.131 | [7] -0.164 | [5] 0.399 | [8] -0.172 | [2] -0.087 | [3] 0.029

RPS6KA3 (UniProt P51812)
inactive: erlotinib -0.04 | [6] -0.003 | [4] 0.182 | [5] 0.004 | [1] 0.026 | [8] 0.328 | [2] 0.082 | [3] -0.043 | IRAK-1-4 Inhibitor I -0.019

RPUSD1 (UniProt Q9UJJ7)
inactive: [6] 0.099 | [7] -0.194 | [1] -0.007 | [8] -0.119 | [2] 0.206 | [3] -0.092 | IRAK-1-4 Inhibitor I 0.133

Additional results

S100A14 (UniProt Q9HCY8)
inactive: erlotinib 0.117 | [4] -0.217 | [5] 0.182 | [1] -0.044 | [2] 0.106 | [3] -0.459 | IRAK-1-4 Inhibitor I -0.119

RRP36 (UniProt Q96EU6)
inactive: erlotinib -0.01 | [6] 0.23 | [4] -0.048 | [7] 0.224 | [1] 0.021 | [8] -0.04 | [2] -0.112 | [3] 0.039 | IRAK-1-4 Inhibitor I -0.001

RXRA (UniProt P19793)
inactive: erlotinib 0.102 | [4] 0.008 | [1] -0.025 | IRAK-1-4 Inhibitor I 0.113

S100A1 (UniProt P23297)
inactive: erlotinib 0.003 | [6] 0.071 | [4] 0.037 | [7] 0.048 | [1] -0.003 | [8] -0.005 | [2] 0.051 | [3] 0.045 | IRAK-1-4 Inhibitor I -0.051

S100A16 (UniProt Q96FQ6)
inactive: [5] 0.032

RTF2 (UniProt Q9BY42)
inactive: erlotinib -0.01 | [6] -0.14 | [4] -0.017 | [7] 0.008 | [5] 0.102 | [1] 0.033 | [8] -0.059 | [2] 0.078 | [3] 0.032 | IRAK-1-4 Inhibitor I -0.01
